Results: patent US20210102174
The exact form of at least one protein or probe is not confirmed. At least one result comes from cells or an extract, where the contact may be indirect. A negative result means that nothing was seen under these conditions.

By UniProt entry, the sequences of proteins in these tests, tags left out.
UniProt P20263, whole entry, stated change not applied: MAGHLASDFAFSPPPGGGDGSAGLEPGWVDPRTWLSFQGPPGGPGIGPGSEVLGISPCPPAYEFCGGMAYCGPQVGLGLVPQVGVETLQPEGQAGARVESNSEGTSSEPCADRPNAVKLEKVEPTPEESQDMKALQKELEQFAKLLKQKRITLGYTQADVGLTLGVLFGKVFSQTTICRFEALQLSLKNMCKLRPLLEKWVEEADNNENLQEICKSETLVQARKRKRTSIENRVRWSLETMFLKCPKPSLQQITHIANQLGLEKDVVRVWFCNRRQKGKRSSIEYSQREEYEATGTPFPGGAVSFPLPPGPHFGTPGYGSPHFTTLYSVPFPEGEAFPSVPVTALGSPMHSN

Target: Oct4 (co-expressed with Flag-Ash2l WT or W118A) (UniProt P20263)
Experiment: binding assay
Conditions: plasmid ChIP in HEK293T, protein in cells, protein details: Myc
[1] = enhanced by Flag-Ash2l WT, not W118A

| Sequence | binding result [1] | also measured |
| --- | --- | --- |
| TACATCCCTAGTAAACATCCAACTTCTTTTTATTC (double strand) [Jarid2 enhancer, intact Ash2l motif] | binds |  |
| TACATTTTATTC (double strand) [Jarid2 enhancer, Ash2l motif deleted] |  | binding result (Ash2l-mediated enhancement of Oct4 binding abolished, variant of Jarid2 enhancer, intact Ash2l motif): no binding |
| TTTTCTTAAC (double strand) [Nanog enhancer, Ash2l motif deleted] |  | binding result (Ash2l-mediated enhancement of Oct4 binding abolished, variant of Nanog enhancer, intact Ash2l motif): no binding |
| TTTTGACTGCTAACCACCCAGAGGACCCACTTAAC (double strand) [Nanog enhancer, intact Ash2l motif] | binds |  |
